Source: paper doi:10.1101/2021.06.11.448082
These are yes or no findings as the source states them, for the method shown. In cells and extracts the contact can be indirect. Some binding calls cover weakened binding; strength is not graded here.

The chains behind the UniProt entries cited, without tags or fusion partners. Where a name states a change or a piece, a line headed by the entry shows the natural chain unless it says otherwise.
UniProt P35637: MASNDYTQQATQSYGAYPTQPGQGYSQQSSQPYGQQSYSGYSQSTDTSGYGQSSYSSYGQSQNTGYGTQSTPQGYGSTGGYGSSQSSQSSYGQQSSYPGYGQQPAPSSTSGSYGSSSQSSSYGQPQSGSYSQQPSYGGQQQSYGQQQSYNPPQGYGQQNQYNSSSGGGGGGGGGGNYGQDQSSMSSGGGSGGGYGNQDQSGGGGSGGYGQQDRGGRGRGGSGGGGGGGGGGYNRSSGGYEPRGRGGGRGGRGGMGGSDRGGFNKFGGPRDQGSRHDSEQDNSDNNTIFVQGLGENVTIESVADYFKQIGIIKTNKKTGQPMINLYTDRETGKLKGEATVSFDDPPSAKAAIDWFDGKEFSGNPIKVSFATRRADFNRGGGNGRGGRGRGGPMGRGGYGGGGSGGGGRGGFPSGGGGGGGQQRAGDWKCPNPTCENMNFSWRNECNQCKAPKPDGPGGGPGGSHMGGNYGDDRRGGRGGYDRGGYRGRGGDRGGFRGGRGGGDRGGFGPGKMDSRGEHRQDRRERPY
UniProt Q01844: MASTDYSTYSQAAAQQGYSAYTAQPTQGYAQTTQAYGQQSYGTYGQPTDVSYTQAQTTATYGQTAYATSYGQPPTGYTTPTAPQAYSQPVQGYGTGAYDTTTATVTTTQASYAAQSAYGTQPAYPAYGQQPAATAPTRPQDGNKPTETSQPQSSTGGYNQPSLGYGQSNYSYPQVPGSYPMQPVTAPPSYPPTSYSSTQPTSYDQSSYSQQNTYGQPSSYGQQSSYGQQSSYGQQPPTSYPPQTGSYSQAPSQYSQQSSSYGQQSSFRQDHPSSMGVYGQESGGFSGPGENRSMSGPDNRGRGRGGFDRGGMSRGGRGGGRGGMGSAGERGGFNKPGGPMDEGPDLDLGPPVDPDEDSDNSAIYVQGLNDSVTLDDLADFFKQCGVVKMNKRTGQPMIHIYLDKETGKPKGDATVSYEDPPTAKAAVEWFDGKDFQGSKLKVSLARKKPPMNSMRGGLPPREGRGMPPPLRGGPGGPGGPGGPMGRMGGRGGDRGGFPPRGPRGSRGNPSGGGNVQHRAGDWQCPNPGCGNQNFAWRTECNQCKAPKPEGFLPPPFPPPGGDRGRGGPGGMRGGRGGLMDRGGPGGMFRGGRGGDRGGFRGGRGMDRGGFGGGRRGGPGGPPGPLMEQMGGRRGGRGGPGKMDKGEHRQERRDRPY
UniProt P05198: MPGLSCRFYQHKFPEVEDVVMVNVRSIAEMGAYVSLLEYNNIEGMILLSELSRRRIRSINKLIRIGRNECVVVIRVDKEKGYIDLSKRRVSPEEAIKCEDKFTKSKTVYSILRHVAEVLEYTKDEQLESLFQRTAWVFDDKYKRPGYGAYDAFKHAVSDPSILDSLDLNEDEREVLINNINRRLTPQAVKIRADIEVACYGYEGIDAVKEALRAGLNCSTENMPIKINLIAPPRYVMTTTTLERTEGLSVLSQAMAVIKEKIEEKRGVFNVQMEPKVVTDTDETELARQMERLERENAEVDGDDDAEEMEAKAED
UniProt Q13283: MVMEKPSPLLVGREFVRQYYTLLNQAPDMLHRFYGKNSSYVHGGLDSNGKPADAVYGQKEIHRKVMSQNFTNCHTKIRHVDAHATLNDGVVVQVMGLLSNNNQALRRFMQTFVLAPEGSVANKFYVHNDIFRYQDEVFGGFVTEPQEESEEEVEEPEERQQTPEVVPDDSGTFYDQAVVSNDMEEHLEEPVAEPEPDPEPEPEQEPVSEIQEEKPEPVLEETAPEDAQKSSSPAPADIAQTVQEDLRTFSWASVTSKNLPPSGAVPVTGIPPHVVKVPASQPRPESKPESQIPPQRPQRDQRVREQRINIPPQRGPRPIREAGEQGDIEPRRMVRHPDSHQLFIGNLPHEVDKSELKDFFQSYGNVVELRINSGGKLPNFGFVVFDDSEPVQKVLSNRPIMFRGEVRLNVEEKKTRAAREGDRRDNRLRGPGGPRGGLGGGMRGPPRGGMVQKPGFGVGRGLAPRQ

Experiments:
[1] = molecular target: GFP-tagged, Twin-Strep-tagged FUS P525L (human) (UniProt P35637); test: co-IP
[2] = molecular target: GFP-tagged, Twin-Strep-tagged FUS WT (human) (UniProt P35637); test: co-IP

Question: Which binding [1] does the source give for EWS (from UniProt Q01844 1-656) here?
Answer: binds

Question: And the binding [2]?
Answer: binds

Question: What does the source list for eIF2α (from UniProt P05198 1-315)?
Answer: binding [1]: binds; binding [2]: binds

Question: Which binding [1] does the source give for G3BP1 (from UniProt Q13283 1-466) here?
Answer: binds

B1: UPF1 (protein, UniProt Q92900 1-1129)
chain: MSVEAYGPSSQTLTFLDTEEAELLGADTQGSEFEFTDFTLPSQTQTPPGGPGGPGGGGAGGPGGAGAGAAAGQLDAQVGPEGILQNGAVDDSVAKTSQLLAELNFEEDEEDTYYTKDLPIHACSYCGIHDPACVVYCNTSKKWFCNGRGNTSGSHIVNHLVRAKCKEVTLHKDGPLGETVLECYNCGCRNVFLLGFIPAKADSVVVLLCRQPCASQSSLKDINWDSSQWQPLIQDRCFLSWLVKIPSEQEQLRARQITAQQINKLEELWKENPSATLEDLEKPGVDEEPQHVLLRYEDAYQYQNIFGPLVKLEADYDKKLKESQTQDNITVRWDLGLNKKRIAYFTLPKTDSGNEDLVIIWLRDMRLMQGDEICLRYKGDLAPLWKGIGHVIKVPDNYGDEIAIELRSSVGAPVEVTHNFQVDFVWKSTSFDRMQSALKTFAVDETSVSGYIYHKLLGHEVEDVIIKCQLPKRFTAQGLPDLNHSQVYAVKTVLQRPLSLIQGPPGTGKTVTSATIVYHLARQGNGPVLVCAPSNIAVDQLTEKIHQTGLKVVRLCAKSREAIDSPVSFLALHNQIRNMDSMPELQKLQQLKDETGELSSADEKRYRALKRTAERELLMNADVICCTCVGAGDPRLAKMQFRSILIDESTQATEPECMVPVVLGAKQLILVGDHCQLGPVVMCKKAAKAGLSQSLFERLVVLGIRPIRLQVQYRMHPALSAFPSNIFYEGSLQNGVTAADRVKKGFDFQWPQPDKPMFFYVTQGQEEIASSGTSYLNRTEAANVEKITTKLLKAGAKPDQIGIITPYEGQRSYLVQYMQFSGSLHTKLYQEVEIASVDAFQGREKDFIILSCVRANEHQGIGFLNDPRRLNVALTRARYGVIIVGNPKALSKQPLWNHLLNYYKEQKVLVEGPLNNLRESLMQFSKPRKLVNTINPGARFMTTAMYDAREAIIPGSVYDRSSQGRPSSMYFQTHDQIGMISAGPSHVAAMNIPIPFNLVMPPMPPPGYFGQANGPAAGRGTPKGKTGRGGRQKNRFGLPGPSQTNLPNSQASQDVASQPFSQGALTQGYISMSQPSQMSQPGLSQPELSQDSYLGDEFKSQIDVALSQDSTYQGERAYQHGGVTGLSQY
Question: Which binding [1] does the source give for B1 here?
Answer: binds

B2: MOV10 (protein, UniProt Q9HCE1 1-1003)
chain: MPSKFSCRQLREAGQCFESFLVVRGLDMETDRERLRTIYNRDFKISFGTPAPGFSSMLYGMKIANLAYVTKTRVRFFRLDRWADVRFPEKRRMKLGSDISKHHKSLLAKIFYDRAEYLHGKHGVDVEVQGPHEARDGQLLIRLDLNRKEVLTLRLRNGGTQSVTLTHLFPLCRTPQFAFYNEDQELPCPLGPGECYELHVHCKTSFVGYFPATVLWELLGPGESGSEGAGTFYIARFLAAVAHSPLAAQLKPMTPFKRTRITGNPVVTNRIEEGERPDRAKGYDLELSMALGTYYPPPRLRQLLPMLLQGTSIFTAPKEIAEIKAQLETALKWRNYEVKLRLLLHLEELQMEHDIRHYDLESVPMTWDPVDQNPRLLTLEVPGVTESRPSVLRGDHLFALLSSETHQEDPITYKGFVHKVELDRVKLSFSMSLLSRFVDGLTFKVNFTFNRQPLRVQHRALELTGRWLLWPMLFPVAPRDVPLLPSDVKLKLYDRSLESNPEQLQAMRHIVTGTTRPAPYIIFGPPGTGKTVTLVEAIKQVVKHLPKAHILACAPSNSGADLLCQRLRVHLPSSIYRLLAPSRDIRMVPEDIKPCCNWDAKKGEYVFPAKKKLQEYRVLITTLITAGRLVSAQFPIDHFTHIFIDEAGHCMEPESLVAIAGLMEVKETGDPGGQLVLAGDPRQLGPVLRSPLTQKHGLGYSLLERLLTYNSLYKKGPDGYDPQFITKLLRNYRSHPTILDIPNQLYYEGELQACADVVDRERFCRWAGLPRQGFPIIFHGVMGKDEREGNSPSFFNPEEAATVTSYLKLLLAPSSKKGKARLSPRSVGVISPYRKQVEKIRYCITKLDRELRGLDDIKDLKVGSVEEFQGQERSVILISTVRSSQSFVQLDLDFNLGFLKNPKRFNVAVTRAKALLIIVGNPLLLGHDPDWKVFLEFCKENGGYTGCPFPAKLDLQQGQNLLQGLSKLSPSTSGPHSHDYLPQEREGEGGLSLQVEPEWRNEL
Question: For B2, which binding [1] is on record?
Answer: binds

Question: What about the binding [2] of the same molecule?
Answer: binds

B3: CLTA (protein, UniProt P09496 1-248)
chain: MAELDPFGAPAGAPGGPALGNGVAGAGEEDPAAAFLAQQESEIAGIENDEAFAILDGGAPGPQPHGEPPGGPDAVDGVMNGEYYQESNGPTDSYAAISQVDRLQSEPESIRKWREEQMERLEALDANSRKQEAEWKEKAIKELEEWYARQDEQLQKTKANNRVADEAFYKQPFADVIGYVTNINHPCYSLEQAAEEAFVNDIDESSPGTEWERVARLCDFNPKSSKQAKDVSRMRSVLISLKQAPLVH
Question: B3 was tested. Which binding [1] did it give?
Answer: binds

Question: And the binding [2]?
Answer: binds
